Measurements reported in PubChem BioAssay AID743454 (Peter MacCallum Cancer Centre, 2014)

Purpose: 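Genes whose loss kills vorinostat-resistant colon cancer cells under vorinostat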 (primary screen)
Cell system: human HCT116-VR colon cancer cells, selected for vorinostat resistance
Knock-down reagent: siRNA pool against human genes, 40 nM siRNA pool
Duration: vorinostat for 24 h, read-out about 72 h after transfection
Treatment: vorinostat at 2.5 µM final
Read-out: 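Cell viability by CellTiter-Fluor and caspase 3/7 activity by luminescence, each scaled to mock wells per plate, duplicates averaged, then robust z-scored over all plates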
Reading the numbers: viability robust z-score: higher = more viable cells than screen typical; caspase robust z-score: higher = more caspase 3/7 activity than screen typical
Call rule: 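Hits are knock-downs in viability class RV1/RV2 or caspase class CA1/CA2, excluding ones that killed cells in the no-drug cell-count arm; hits then retested with single siRNAs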
The deposit covers about 18,000 reagents; this is a random part of them. Over the whole deposit, 450 (2.5%) were called active. 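Single biological run; no consistent viability z cut-off exists, so the class columns, not z-scores, define the calls.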 Reagent sequences are not shown.

With knock-down of OR52W1 (olfactory receptor family 52 subfamily W member 1) the results were viability hit class no change; caspase hit class no change; viability robust z-score 0.59; caspase robust z-score 0.56; inactive.
Silencing of FOXP3 (forkhead box P3) resulted in: viability hit class no change; caspase hit class no change; viability robust z-score 1.34; caspase robust z-score 0.68; inactive.
After knock-down of LAMP1 (lysosome associated membrane protein 1), the record shows viability hit class no change; caspase hit class no change; viability robust z-score -1; caspase robust z-score 0.54; inactive.
Depletion of SDHAF4 (succinate dehydrogenase complex assembly factor 4) resulted in: viability hit class no change; caspase hit class no change; viability robust z-score -0.32; caspase robust z-score -0.24; inactive.
With knock-down of KCTD9 (potassium channel tetramerization domain containing 9), the screen gave viability hit class no change; caspase hit class no change; viability robust z-score -0.26; caspase robust z-score -0.44; inactive.
RBM46 (RNA binding motif protein 46) scored viability hit class no change; caspase hit class no change; viability robust z-score 2.18; caspase robust z-score 0.04; inactive.
With knock-down of DISP2 (dispatched RND transporter family member 2), the record shows viability hit class no change; caspase hit class no change; viability robust z-score 0.58; caspase robust z-score 0.13; inactive.
After knock-down of TXLNG (taxilin gamma), the screen gave viability hit class no change; caspase hit class no change; viability robust z-score -0.44; caspase robust z-score -0.02; inactive.
With knock-down of FLII (FLII actin remodeling protein), the record shows viability hit class no change; caspase hit class CA2 (caspase activation); viability robust z-score -0.3; caspase robust z-score 7.41; active.
PTPRT (protein tyrosine phosphatase receptor type T) gave viability hit class no change; caspase hit class no change; viability robust z-score 0.22; caspase robust z-score 1.27; inactive.
After knock-down of DUSP8 (dual specificity phosphatase 8) the results were viability hit class no change; caspase hit class no change; viability robust z-score -0.41; caspase robust z-score 0.91; inactive.
For PRCP (prolylcarboxypeptidase) the deposit lists viability hit class no change; caspase hit class no change; viability robust z-score 0.07; caspase robust z-score -0.4; inactive.
NOP2 (NOP2 nucleolar protein) scored viability hit class no change; caspase hit class no change; viability robust z-score -3.23; caspase robust z-score 0.7; inactive.
Knock-down of DCAF13 (DDB1 and CUL4 associated factor 13) gave: viability hit class no change; caspase hit class no change; viability robust z-score -1.06; caspase robust z-score -1; inactive.
With knock-down of SIX1 (SIX homeobox 1) the results were viability hit class no change; caspase hit class no change; viability robust z-score -0.46; caspase robust z-score 0.02; inactive.
After knock-down of FCGR1BP (Fc gamma receptor Ib, pseudogene), the screen gave viability hit class no change; caspase hit class no change; viability robust z-score -0.32; caspase robust z-score -0.5; inactive.
After knock-down of FCGR1A (Fc gamma receptor Ia), the record shows viability hit class no change; caspase hit class no change; viability robust z-score 0.2; caspase robust z-score -0.44; inactive.
Against RBAK (RB associated KRAB zinc finger), the entry reads viability hit class no change; caspase hit class no change; viability robust z-score -0.42; caspase robust z-score 0.54; inactive.
With knock-down of SH3BP4 (SH3 domain binding protein 4), the record shows viability hit class no change; caspase hit class no change; viability robust z-score 0.06; caspase robust z-score -0.44; inactive.
After knock-down of CNN1 (calponin 1), the screen gave viability hit class no change; caspase hit class no change; viability robust z-score -0.48; caspase robust z-score 1.27; inactive.
CEMIP (cell migration inducing hyaluronidase 1) showed viability hit class no change; caspase hit class no change; viability robust z-score 1.36; caspase robust z-score -0.64; inactive.

Individual results from the entries so far:
Result of PTPRT (protein tyrosine phosphatase receptor type T) in “viability robust z-score”: 0.22
For “viability hit class”, SDHAF4 (succinate dehydrogenase complex assembly factor 4) has no change
Under “viability robust z-score”, NOP2 (NOP2 nucleolar protein) has -3.23
